No constants are given. Whether binding was seen depends on the method and setting. Some entries that bind do so weakly or less than the wild type.
What was measured:
[1] = molecular target: Recombinant I. scapularis AKR/SUB (Ixodes scapularis) (UniProt Q4VRW2); experiment: native gel or EMSA; 5 µg of each protein in 20 µl PBS, shaking, 4 °C overnight; 12% polyacrylamide gel under non-denaturing conditions, Coomassie stain or Western blot with rabbit IgG against tick SUB; both purified
[2] = molecular target: Recombinant human (Myc-DDK-tagged) AKR2 (human) (UniProt Q53H80); experiment: pull-down; recombinant interacting protein incubated with Myc-DDK-tagged AKR2 for 2 h, then 30 min with c-Myc magnetic beads, shaking, room temperature; eluted with Laemmli sample buffer; Western blot with antibodies specific for the interacting protein; both purified

The chains behind the UniProt entries cited, without tags or fusion partners.
UniProt P08621: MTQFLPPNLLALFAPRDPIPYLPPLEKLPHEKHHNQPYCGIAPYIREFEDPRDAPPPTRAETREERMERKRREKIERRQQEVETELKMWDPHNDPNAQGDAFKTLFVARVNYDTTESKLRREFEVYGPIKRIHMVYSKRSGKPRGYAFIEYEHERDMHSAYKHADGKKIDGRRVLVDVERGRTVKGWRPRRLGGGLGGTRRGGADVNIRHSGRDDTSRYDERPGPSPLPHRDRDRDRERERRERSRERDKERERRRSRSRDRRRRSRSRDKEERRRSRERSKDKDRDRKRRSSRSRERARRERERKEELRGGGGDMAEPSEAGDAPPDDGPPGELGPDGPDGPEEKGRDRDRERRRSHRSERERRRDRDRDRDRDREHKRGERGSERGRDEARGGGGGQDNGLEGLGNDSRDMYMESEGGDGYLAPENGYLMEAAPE

Substance: Recombinant I. scapularis AKR/SUB (from UniProt Q4VRW2 1-184)
- binding [1]: binds

Substance: U1 small nuclear ribonucleoprotein 70 kDa, recombinant (from UniProt P08621 1-437)
- binding [2]: no binding

— paper PMC7157757
